Experimental data as given in the supplement of paper PMC10849652.
The list shows a part of the results.

The chains behind the UniProt entries cited, without tags or fusion partners. Where a name states a change or a piece, a line headed by the entry shows the natural chain unless it says otherwise.
UniProt Q9H936: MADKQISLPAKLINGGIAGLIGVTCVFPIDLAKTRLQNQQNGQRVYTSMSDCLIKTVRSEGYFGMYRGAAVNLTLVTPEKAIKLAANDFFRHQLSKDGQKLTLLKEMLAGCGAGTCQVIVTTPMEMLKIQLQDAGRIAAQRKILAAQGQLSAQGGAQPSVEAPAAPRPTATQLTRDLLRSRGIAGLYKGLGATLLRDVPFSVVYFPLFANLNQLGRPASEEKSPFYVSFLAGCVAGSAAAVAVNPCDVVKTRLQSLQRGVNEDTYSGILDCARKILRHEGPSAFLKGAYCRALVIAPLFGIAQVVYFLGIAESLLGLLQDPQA
UniProt Q9UBX3: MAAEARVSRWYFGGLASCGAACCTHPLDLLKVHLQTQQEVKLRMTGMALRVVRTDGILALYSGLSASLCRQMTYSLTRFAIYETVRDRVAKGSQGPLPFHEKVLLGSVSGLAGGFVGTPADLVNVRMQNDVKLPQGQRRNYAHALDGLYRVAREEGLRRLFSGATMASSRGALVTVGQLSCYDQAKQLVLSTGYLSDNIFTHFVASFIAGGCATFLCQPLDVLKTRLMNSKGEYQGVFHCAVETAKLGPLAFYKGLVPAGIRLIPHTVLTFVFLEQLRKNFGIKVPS
UniProt Q6XR72: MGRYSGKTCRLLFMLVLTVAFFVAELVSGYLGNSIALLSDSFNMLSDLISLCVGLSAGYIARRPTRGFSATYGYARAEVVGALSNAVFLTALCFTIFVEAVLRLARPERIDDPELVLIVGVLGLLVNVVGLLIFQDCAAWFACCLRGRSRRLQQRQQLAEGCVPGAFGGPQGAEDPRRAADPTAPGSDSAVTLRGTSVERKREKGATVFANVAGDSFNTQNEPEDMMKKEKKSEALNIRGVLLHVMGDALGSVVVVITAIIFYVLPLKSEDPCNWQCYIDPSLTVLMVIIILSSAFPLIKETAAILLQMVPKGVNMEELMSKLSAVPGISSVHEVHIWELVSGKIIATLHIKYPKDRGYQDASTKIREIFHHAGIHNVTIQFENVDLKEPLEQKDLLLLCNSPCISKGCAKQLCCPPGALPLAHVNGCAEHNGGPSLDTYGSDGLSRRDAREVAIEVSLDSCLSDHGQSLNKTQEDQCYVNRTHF
UniProt L0R6Q1: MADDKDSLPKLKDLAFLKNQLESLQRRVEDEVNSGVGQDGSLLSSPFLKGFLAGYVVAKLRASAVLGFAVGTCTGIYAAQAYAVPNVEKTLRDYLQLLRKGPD
UniProt Q6P1M0: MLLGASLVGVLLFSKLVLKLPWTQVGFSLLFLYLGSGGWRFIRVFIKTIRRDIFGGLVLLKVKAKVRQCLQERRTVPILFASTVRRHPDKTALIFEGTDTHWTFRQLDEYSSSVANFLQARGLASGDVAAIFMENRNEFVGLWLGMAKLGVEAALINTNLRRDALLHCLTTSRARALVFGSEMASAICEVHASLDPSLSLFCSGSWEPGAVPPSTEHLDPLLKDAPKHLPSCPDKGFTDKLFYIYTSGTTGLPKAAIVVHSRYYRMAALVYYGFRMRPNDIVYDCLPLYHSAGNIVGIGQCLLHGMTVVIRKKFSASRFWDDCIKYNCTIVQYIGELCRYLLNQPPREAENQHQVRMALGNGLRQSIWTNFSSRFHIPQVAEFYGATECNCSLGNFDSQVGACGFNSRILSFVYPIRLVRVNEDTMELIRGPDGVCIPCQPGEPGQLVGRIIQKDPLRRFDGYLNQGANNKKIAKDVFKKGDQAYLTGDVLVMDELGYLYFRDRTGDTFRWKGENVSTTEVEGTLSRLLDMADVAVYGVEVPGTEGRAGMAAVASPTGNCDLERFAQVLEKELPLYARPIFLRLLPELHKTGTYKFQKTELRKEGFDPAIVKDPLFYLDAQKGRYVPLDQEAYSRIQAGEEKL
UniProt O14745: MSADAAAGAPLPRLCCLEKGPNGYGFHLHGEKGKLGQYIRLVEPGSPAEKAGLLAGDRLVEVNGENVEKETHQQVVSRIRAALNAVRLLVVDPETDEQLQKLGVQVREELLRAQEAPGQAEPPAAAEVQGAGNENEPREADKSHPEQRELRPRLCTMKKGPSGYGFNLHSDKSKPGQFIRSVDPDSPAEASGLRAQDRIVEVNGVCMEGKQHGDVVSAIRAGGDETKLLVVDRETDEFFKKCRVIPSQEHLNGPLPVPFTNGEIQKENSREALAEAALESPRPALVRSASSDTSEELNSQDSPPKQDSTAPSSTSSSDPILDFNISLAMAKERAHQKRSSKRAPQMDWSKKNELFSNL
UniProt Q9UPY5: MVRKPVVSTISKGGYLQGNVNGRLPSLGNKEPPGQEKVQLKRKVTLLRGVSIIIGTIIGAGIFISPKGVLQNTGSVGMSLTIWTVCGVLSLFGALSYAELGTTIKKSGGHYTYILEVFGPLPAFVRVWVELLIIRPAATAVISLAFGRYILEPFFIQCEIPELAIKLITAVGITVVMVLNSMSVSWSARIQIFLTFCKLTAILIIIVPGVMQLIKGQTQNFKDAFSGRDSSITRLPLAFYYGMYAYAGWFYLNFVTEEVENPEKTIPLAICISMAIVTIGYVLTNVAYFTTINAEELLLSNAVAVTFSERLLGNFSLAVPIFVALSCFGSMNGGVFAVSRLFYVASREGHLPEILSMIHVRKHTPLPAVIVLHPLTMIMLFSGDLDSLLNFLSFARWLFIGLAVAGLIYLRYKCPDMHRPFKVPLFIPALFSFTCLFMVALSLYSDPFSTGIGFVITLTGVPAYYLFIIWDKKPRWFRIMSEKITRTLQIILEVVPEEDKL
UniProt Q8NBI5: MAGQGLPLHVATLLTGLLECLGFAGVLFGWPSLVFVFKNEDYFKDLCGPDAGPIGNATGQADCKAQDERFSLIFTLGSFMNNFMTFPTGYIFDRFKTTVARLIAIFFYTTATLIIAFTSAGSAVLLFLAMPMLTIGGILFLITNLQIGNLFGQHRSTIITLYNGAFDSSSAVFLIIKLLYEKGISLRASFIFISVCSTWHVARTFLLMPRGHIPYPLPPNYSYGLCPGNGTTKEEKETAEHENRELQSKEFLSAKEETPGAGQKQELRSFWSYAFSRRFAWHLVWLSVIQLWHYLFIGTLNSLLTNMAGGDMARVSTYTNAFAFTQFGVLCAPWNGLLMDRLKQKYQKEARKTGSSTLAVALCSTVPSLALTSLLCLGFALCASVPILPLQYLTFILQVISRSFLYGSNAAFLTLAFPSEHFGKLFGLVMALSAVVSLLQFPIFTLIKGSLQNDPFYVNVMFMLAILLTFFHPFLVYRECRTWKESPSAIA
UniProt Q9Y619: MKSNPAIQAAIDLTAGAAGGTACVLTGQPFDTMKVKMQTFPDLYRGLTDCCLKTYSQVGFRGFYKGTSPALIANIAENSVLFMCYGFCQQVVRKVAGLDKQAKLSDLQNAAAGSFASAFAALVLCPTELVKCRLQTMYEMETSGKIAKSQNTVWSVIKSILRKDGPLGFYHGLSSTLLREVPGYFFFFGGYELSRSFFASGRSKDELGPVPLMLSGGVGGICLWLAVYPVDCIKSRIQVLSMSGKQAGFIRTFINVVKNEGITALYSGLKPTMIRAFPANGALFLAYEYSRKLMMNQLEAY
UniProt O00193: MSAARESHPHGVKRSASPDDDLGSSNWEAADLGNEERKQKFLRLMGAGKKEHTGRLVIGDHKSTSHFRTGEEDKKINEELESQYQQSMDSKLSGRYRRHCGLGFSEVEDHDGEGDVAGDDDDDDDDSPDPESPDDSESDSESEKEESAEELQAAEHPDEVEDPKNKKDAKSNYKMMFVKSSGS
UniProt P78383: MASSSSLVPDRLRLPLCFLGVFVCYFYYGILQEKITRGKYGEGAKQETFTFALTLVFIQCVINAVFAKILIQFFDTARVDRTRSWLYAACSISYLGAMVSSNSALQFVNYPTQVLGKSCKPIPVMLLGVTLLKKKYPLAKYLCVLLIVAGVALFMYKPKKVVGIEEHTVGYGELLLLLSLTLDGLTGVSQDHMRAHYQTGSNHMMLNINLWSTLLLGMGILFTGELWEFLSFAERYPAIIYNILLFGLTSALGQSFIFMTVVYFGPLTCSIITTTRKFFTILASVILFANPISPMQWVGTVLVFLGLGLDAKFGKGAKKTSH
UniProt Q99717: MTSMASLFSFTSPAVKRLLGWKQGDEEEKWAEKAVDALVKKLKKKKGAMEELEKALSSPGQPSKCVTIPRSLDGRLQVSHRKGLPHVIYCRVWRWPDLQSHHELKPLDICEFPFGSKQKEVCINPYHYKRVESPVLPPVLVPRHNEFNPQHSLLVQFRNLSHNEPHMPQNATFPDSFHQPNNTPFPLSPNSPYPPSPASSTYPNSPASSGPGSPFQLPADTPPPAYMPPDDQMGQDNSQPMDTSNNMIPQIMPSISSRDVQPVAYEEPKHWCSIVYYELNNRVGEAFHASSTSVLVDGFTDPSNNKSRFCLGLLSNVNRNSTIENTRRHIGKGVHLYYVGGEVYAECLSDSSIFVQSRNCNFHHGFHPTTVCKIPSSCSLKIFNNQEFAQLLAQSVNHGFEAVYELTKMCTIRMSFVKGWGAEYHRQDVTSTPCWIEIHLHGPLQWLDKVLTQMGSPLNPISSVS
UniProt Q969S0: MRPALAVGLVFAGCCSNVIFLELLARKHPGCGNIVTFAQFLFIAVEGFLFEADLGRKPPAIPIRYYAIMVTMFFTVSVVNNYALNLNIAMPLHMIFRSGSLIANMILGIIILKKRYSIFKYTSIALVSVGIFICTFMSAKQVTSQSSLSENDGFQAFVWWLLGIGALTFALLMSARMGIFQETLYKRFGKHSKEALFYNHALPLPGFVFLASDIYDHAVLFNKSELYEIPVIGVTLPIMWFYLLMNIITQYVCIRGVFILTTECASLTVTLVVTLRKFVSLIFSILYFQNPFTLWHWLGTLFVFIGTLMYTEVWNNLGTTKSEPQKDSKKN
UniProt Q9BQT8: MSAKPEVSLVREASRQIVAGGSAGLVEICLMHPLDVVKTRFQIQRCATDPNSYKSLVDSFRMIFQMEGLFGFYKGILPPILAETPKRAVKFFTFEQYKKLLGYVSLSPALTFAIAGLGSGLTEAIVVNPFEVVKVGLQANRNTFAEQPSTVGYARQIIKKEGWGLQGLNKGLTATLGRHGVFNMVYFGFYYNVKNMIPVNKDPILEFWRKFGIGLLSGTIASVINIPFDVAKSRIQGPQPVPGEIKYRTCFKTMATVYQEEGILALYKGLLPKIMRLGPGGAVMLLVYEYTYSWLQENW
UniProt Q8WU79: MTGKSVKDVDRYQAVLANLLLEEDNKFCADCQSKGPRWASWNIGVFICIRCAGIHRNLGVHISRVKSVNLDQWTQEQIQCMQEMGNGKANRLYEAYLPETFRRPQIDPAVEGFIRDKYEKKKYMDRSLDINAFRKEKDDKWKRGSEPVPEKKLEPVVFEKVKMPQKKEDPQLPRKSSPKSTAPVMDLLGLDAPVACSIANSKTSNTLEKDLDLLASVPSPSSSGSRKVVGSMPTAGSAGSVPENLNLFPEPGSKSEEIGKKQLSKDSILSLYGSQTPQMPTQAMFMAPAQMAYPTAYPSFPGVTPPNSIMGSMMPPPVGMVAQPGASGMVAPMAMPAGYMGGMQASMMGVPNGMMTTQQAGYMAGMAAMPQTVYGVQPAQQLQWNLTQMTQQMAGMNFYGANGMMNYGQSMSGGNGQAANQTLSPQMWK
UniProt P31641: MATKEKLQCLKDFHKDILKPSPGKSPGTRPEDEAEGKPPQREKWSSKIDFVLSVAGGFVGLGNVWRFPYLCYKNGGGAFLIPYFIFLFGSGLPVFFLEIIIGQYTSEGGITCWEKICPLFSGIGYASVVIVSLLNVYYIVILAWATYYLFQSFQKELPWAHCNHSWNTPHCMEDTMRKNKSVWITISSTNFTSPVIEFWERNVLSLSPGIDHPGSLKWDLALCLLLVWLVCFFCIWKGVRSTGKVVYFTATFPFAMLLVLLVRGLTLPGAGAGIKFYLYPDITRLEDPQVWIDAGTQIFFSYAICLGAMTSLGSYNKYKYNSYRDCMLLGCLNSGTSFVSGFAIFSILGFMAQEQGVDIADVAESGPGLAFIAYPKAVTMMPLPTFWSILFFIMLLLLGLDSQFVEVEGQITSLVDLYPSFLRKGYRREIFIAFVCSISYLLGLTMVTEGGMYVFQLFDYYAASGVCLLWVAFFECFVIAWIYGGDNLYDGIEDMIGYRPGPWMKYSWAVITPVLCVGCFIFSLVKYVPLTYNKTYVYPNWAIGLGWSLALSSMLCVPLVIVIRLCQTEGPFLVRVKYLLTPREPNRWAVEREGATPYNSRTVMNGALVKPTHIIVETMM
UniProt Q9H2D1: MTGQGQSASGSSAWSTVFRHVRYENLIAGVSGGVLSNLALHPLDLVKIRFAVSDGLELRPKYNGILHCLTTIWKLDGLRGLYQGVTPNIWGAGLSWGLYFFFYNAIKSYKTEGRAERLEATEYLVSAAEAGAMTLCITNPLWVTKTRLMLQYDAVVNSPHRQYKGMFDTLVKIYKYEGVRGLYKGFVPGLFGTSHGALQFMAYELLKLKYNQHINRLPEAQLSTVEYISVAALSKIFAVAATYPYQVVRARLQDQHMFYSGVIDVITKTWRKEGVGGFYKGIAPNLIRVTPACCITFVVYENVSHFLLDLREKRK

compound: O=C(O)c1ccc2c(c1)nc(Nc1cccc(Cl)c1)c1ccncc12 [silmitasertib]; assay: log2 fold change, soluble protein after heating vs DMSO (PISA); higher = thermal stabilisation; K562 lysate, 10 uM; active = over 0.2 and 3.5 SD of the protein, either way, in both replicates (recomputed)
How it was run: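 The values are log-two fold changes in thermal stability compared with solvent controls and come from duplicates. They were obtained by TMTpro 16plex LC-MS/MS, with channel sums equalised, on the supernatant after 21,000xg for 90 min. That supernatant came from crude K562 extract at 1 mg/mL protein treated with 10 μM compound for 30 min, heated for 3 min across 48°C-58°C, pooled and brought to 0.5% NP-40 at 4°C.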

log2 fold change, inactive:
SLC25A22 (UniProt Q9H936) 0.002
SLC25A10 isoform 2 (UniProt Q9UBX3) -0.001
SLC30A10 (UniProt Q6XR72) -0.033
SLC35A4 (UniProt L0R6Q1) -0.077
SLC27A4 (UniProt Q6P1M0) 0.016
SLC35A3 isoform 2 (UniProt Q9Y2D2) -0.07
SLC9A3R1 (UniProt O14745) -0.026
SLC4A7 isoform 7 (UniProt Q9Y6M7) 0
SLC7A11 (UniProt Q9UPY5) 0.001
SLC35B2 (UniProt Q8TB61) -0.062
SMAD4 (UniProt Q13485) -0.017
SLC43A3 isoform 2 (UniProt Q8NBI5) 0.028
SLC25A15 (UniProt Q9Y619) 0.018
SLC39A10 (UniProt Q9ULF5) 0.083
SMAP (UniProt O00193) -0.051
SLC35B1 isoform 2 (UniProt P78383) -0.007
SMAD5 (UniProt Q99717) -0.104
SLC35B4 (UniProt Q969S0) -0.07
SLC25A21 (UniProt Q9BQT8) -0.013
SMAP2 (UniProt Q8WU79) 0.017
SLC6A6 (UniProt P31641) 0.011
SLC25A32 (UniProt Q9H2D1) -0.008

A portion from the list above, for reference:
log2 fold change, inactive:
SLC35A3 isoform 2 (UniProt Q9Y2D2) -0.07
SLC9A3R1 (UniProt O14745) -0.026
SLC4A7 isoform 7 (UniProt Q9Y6M7) 0
